From patent US7037662
Results are given in words; binding and its absence hold for the method and conditions named. Some binding calls cover weakened binding; strength is not graded here.

The chains behind the UniProt entries cited, without tags or fusion partners. Residues count along the entry.
UniProt P20827, residues 19-182: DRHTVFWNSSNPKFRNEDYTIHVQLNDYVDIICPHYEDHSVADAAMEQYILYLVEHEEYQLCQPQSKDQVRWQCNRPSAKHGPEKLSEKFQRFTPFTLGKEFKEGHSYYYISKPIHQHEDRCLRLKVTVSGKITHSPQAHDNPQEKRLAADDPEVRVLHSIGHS
UniProt P52799, residues 28-229: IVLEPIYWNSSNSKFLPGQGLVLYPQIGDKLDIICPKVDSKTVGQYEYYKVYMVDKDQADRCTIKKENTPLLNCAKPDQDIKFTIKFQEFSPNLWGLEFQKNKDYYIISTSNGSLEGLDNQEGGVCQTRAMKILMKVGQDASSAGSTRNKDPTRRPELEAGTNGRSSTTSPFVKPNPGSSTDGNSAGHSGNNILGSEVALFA

Columns and labels:
[1] = molecular target: T1, soluble HEK (sHEK), complete extracellular domain (exodomain) of HEK encoded by exons I-VII (human) (UniProt P29320); experiment: BIAcore, LERK-Fc fusion over sensor chip-immobilised HEK exodomain
T1 sequence (looked up): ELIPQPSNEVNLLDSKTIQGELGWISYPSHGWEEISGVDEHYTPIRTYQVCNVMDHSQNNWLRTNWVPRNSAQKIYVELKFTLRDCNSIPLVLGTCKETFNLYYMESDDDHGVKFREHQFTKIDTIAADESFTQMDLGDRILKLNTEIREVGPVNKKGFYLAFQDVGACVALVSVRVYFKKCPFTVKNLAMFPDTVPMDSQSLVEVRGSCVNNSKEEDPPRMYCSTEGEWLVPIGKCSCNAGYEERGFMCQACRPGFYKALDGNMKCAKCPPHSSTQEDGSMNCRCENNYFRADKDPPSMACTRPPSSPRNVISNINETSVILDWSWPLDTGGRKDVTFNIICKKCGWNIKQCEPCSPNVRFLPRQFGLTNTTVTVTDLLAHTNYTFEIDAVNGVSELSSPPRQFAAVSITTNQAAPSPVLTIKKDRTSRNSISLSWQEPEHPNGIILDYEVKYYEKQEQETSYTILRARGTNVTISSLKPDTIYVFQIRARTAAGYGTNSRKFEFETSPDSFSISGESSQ

[2] = molecular target: T1, soluble HEK (sHEK), complete extracellular domain (exodomain) of HEK encoded by exons I-VII (human); experiment: BIAcore, LERK-Fc over HEK-derivatised sensor chip
[3] = molecular target: T1, soluble HEK (sHEK), complete extracellular domain (exodomain) of HEK encoded by exons I-VII (human); experiment: BIAcore, LERK-Fc fusion at 10 µg/ml over sensor chip-immobilised HEK exodomain
[4] = molecular target: T1, soluble HEK (sHEK), complete extracellular domain (exodomain) of HEK encoded by exons I-VII (human); experiment: BIAcore; Fc fusion protein at 10 µg/ml (50 µl) on an sHEK-derivatised sensor chip; response 20 s after the end of the injection

Measured: binding

LERK 1-Fc fusion protein (from UniProt P20827 19-182)
binds: all assays above

LERK 5-Fc fusion protein (from UniProt P52799 28-229)
binds: [1] | [2] | [4]
